Primary screen of a compound library

Mtb growth Cornell: 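Whole-cell assay for inhibitors of Mycobacterium tuberculosis growth, labelled Cornell in the record; the read-out is not stated. The concentration is filed as 10 mM, unlikely as a test dose, so the dose is not known. The record gives no direction; compounds strong in two other growth screens of this library score well above the rest, so higher reads as stronger inhibition. Of about 53,000 compounds tested this way, about 900 (1.7%) reached 50% or more in at least one test.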
Mtb heat-shock: 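Assay on Mycobacterium tuberculosis, filed only as a heat shock assay from Cornell; the read-out is not stated. The concentration is filed as 10 mM, unlikely as a test dose, so the dose is not known. Higher reads as stronger inhibition (inferred: compounds with an IC50 in retests scored well above the rest). About 69,000 compounds were tested under these conditions; 1.4% (about 930) showed 50% or more at least once.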

Each number is a percent effect as filed.
The record does not define 0% and 100%; most values in the screen are far below 50% and negative numbers occur (in some assays of this library far below -100).
Compounds were drawn at random from those tested, without regard to their results.
A dash means the value is not listed here; it may have been measured.

Compound	Mtb growth Cornell	Mtb heat-shock
O=C1CCN(C(=O)CCc2cc(Br)cs2)CCN1	-	6.234%
CC(=O)N(Cc1noc(C)n1)C1CCN(CC(=O)N(C)C2CC2)C1 (centres unmarked)	1.084%	-7.197%
CC(CN1CCOC1=O)NC(=O)c1cccc(C#N)c1 (centres unmarked)	-26.41%	-8.651%
Cc1nc(N2CCCC2)ncc1-c1cc(O)n2ncnc2n1	-	7.802%
O=C(COc1cccc2c1CCC2=O)NCc1ccccc1Cl	6.148%	11.19%
COCCN(Cc1sccc1C)c1nc(C)nc2sccc12	28.9%	-10.02%
CC(C)c1nn(C)c(N(C)C)c1CNC1CCC(O)CC1 (centres unmarked)	21.48%	-4.418%
CCN(C(=O)CN1CCCC1c1cc(C)no1)c1ccccc1C (centres unmarked)	32.57%	9.709%
[H][C@@]12CN(CC3CCCC3)C[C@]1([H])OCCN2c1cnccn1	13.62%	4.214%
Cc1cc(NC(=O)NCC(O)c2ccc(F)cc2)n(C)n1 (centres unmarked)	-	5.311%
CC(C)(C)C(=O)Nc1ccc(Oc2ccsc2C(=O)O)cc1	16.22%	8.906%
COc1ccc(CS(=O)(=O)CC(=O)NCC2CC2)cc1F	18.93%	10.61%
O[C@H]1CN(Cc2ccc3c(c2)OCCO3)CC[C@@]12CCCO2	-16.21%	-3.731%
Cc1cc(F)c2c(c1)CCCN2Cc1cc(=O)n(C)c(=O)n1C	8.042%	6.856%
CCOC(=O)c1coc(N2CCN(C(=O)c3cccc(OC)c3)CC2)n1	24.86%	10.34%
CC(C)c1nc(C(=O)N2C[C@H](C(C)C)[C@@H](N)C2)cs1	33.97%	-14.71%
CNS(=O)(=O)Cc1ccc(CNc2ccc(C#N)cn2)cc1	3.239%	15.22%
CCC[C@H]1CN(Cc2cscn2)C[C@@H]1NC(=O)C1(COC)CCC1	1.669%	-7.932%
CC(C)C(=O)N1CCC(C2C(=O)Nc3ccccc32)CC1 (centres unmarked)	-	10.53%
COc1cccc(-c2nc(C)c(C(=O)NC(CO)CCSC)s2)c1 (centres unmarked)	-	-5.585%
Cc1csc(N2CCN(Cc3cnc4c(c3)c(C)nn4C)CC2)n1	-7.278%	18.18%
Cc1cccnc1N1CCN(C(=O)CCc2cn3ccccc3n2)CC1	1.468%	-25.64%
O=C(COCc1nc(-c2ccncc2)no1)N1CCCCC1	14.21%	-40.57%
CC(C)CCC(=O)Nc1ccc2oc(=O)n(CCN(C)C)c2c1	-39.6%	-1.215%
COCC(C)(C)NS(=O)(=O)C1CS(=O)(=O)c2ccccc21 (centres unmarked)	-15.34%	27.46%
O=C(O)C(F)(F)F.O=C(c1ccncc1F)N1CC2CC1(C(=O)N1CCCC1)C2	29.53%	-2.823%
Cc1ccc(NC(C)C(=O)N(C)Cc2cccc(F)c2)cc1C(N)=O (centres unmarked)	-8.645%	-2.287%
CCN1CC(C(=O)NC(C)(C)C(=O)OC)CC1=O (centres unmarked)	-28.54%	-2.146%
O=C(Cn1nc(-c2ccc(F)cc2)oc1=O)NCC1CCCO1 (centres unmarked)	-	-2.398%
CC(C)CC(=O)NC1CC2(CCN(CCF)CC2)Oc2ccccc21.O=C(O)C(F)(F)F (centres unmarked)	23.49%	-0.9769%
Cn1nccc1C(=O)N1CCOC(Cc2cccc(C(F)(F)F)c2)C1 (centres unmarked)	23.48%	9.566%
COc1ncccc1C(=O)NC1(c2cccc(F)c2)CCOCC1	-	-18.4%
CCc1ncc2c(n1)CN(Cc1nc(-c3ccccn3)no1)CC2	0.1688%	-36.33%
Cc1cc(C(=O)N(C)Cc2ccoc2)c(NC(=O)C(C)(C)C)s1	48.1%	-0.9308%
c1ccc(OCCN2CCCCC2Cn2cncn2)cc1 (centres unmarked)	-	-14.95%
CCN(Cc1ccoc1)C(=O)c1cc(C)c(C)c(S(N)(=O)=O)c1	-	-4.276%
CSc1nccc(NCC2CNCCOC2)n1 (centres unmarked)	-	-38.16%
CS(=O)(=O)N[C@@H]1CN(Cc2ccccc2)C[C@H]1O	-5.752%	8.189%
Cc1csc(C2CCCN(C(=O)c3ccc(=O)n(C)n3)C2)n1 (centres unmarked)	-1.872%	-3.06%
Cc1nc(CC(=O)N2CCC[C@H]2c2nc(C(C)C)no2)cs1	7.462%	4.749%
CC(C)Nc1nc2c(c(NC3CC3)n1)CCN(C1CCOCC1)CC2	25.94%	0.897%
Cc1nc(NC(=O)N2CCCC(C(C)(C)O)C2)nn1C (centres unmarked)	20.73%	-17.36%
Cc1ccc(C(=O)Nc2cn[nH]c2)cc1	-	-8.204%
CCCN1C(=O)CC2(CCCNC2)C1=O.Cl (centres unmarked)	8.623%	-30.17%
Cc1nc(NCC23CCCN2CCC3)cc(C2CCCNC2)n1 (centres unmarked)	11.42%	-4.341%
COCC(=O)N[C@H](C(=O)NC(C)c1cc(C)ccc1C)C(C)C (some centres unmarked)	-	-3.021%
COCCN1CCN(Cc2cccc(C(=O)N(C)C)c2)CC1	-27.32%	-10.69%
Cn1cc(CN2CCCC3(CCCN3S(C)(=O)=O)C2)cn1.O=C(O)C(F)(F)F (centres unmarked)	-52.66%	5.739%
COCCC(=O)N1CCC(c2ncncc2-c2ccnc(N)c2)C1 (centres unmarked)	-11.23%	-0.1349%
CN(C1CCCC1)C(C)(C)C(=O)NCCNC(N)=O	15.74%	0.6559%
O=C1NCC2(CCCN(C(=O)Cn3nc4ccccc4n3)CC2)O1 (centres unmarked)	-89.68%	102.6%
COCCN(Cc1ccccn1)C(=O)Nc1cccnc1N1CCCC1	-8.339%	10.11%
Cc1ccccc1C(=O)NC(C)CN1CCOC1=O (centres unmarked)	-36.61%	-23.02%
CC(=O)N1Cc2ccccc2CC1C(=O)Nc1ccc(C)cn1 (centres unmarked)	3.089%	23.72%
COCCO[C@H]1CCN(c2ccc(C)nn2)[C@H]1Cc1cnn(C)c1	1.056%	-30.81%
CCc1csc(C2CCCN(C(=O)c3ccc4c(c3)OCO4)C2)n1 (centres unmarked)	7.582%	-3.729%
Cc1ccc(F)cc1C(=O)N1CCOCC12CCCC2	20.33%	4.903%
O=C(Nc1nc[nH]n1)c1cc(-c2ccc(F)cc2)n[nH]1	-85.66%	8.981%
CCNC(=O)[C@@H]1C[C@@H](N)CN1C(=O)CCc1ccc(C)c(C)c1	-14.94%	6.621%
CC(C)N1CCOC(CC(=O)N2CCCN(c3ccc(F)cc3)CC2)C1 (centres unmarked)	-	-7.228%
COCCN(C(=O)c1ccc(OC)cc1)c1ccc(C#N)cc1	-46.27%	-41.36%
CN1C(=O)C2(CCN(C(=O)c3ccccc3)CC2)c2cccc(F)c21.Cl	14.64%	8.733%
CC(C)N1CCCC1c1cc(CCO)[nH]n1 (centres unmarked)	11.54%	6.938%
Cc1ccc(CN2CCC3(C2)C(=O)N(CC(C)C)c2ccccc23)s1 (centres unmarked)	50.09%	104.8%
Cc1cnn(CC(C)NCc2nc(-c3cccs3)no2)c1 (centres unmarked)	12.5%	-8.94%
O=C(O)C(F)(F)F.[H][C@@]12COC[C@@H](CC(=O)N3CCCC3)[C@]1([H])CN(Cc1ccccc1)C2	9.832%	-34.26%
OCc1ccc(CN2CCC(n3cc(-c4ccsc4)nn3)CC2)o1	25.63%	-7.335%
Cn1ccnc1CN1CCC2(CC1)CC(Oc1cccnc1)C2.O=C(O)C(F)(F)F.O=C(O)C(F)(F)F	17.06%	5.207%
CCNC(=O)NCc1cccc(N2CC=CC2)c1	-19.65%	15.44%
Cn1ccnc1CN1CCc2c(COCC3CC3)nn(C)c2C1	-3.949%	15.12%
CC(C)(C)C(=O)NCCC1CN(Cc2ccccc2F)CCO1 (centres unmarked)	-	-9.379%
CC(=O)NCc1cc(-c2cccs2)n(C2CCCC2)n1	7.53%	11.2%

7 of the entries, repeated:

| Compound | Mtb growth Cornell | Mtb heat-shock |
|---|---|---|
| `Cc1cnn(CC(C)NCc2nc(-c3cccs3)no2)c1` (centres unmarked) | 12.5% | -8.94% |
| `Cn1ccnc1CN1CCc2c(COCC3CC3)nn(C)c2C1` | -3.949% | 15.12% |
| `Cn1cc(CN2CCCC3(CCCN3S(C)(=O)=O)C2)cn1.O=C(O)C(F)(F)F` (centres unmarked) | -52.66% | 5.739% |
| `Cc1cccnc1N1CCN(C(=O)CCc2cn3ccccc3n2)CC1` | 1.468% | -25.64% |
| `CC(=O)NCc1cc(-c2cccs2)n(C2CCCC2)n1` | 7.53% | 11.2% |
| `Cn1ccnc1CN1CCC2(CC1)CC(Oc1cccnc1)C2.O=C(O)C(F)(F)F.O=C(O)C(F)(F)F` | 17.06% | 5.207% |
| `Cc1csc(N2CCN(Cc3cnc4c(c3)c(C)nn4C)CC2)n1` | -7.278% | 18.18% |

From ChEMBL document CHEMBL3988442, “University of Dundee, Small-Polar-MMV Screening Library” (2021).